Data reported in patent US20040161821A1.
Where a chain is given by its changes, count along the chain named. No constants are given. Whether binding was seen depends on the method and setting. Binding seen in cells or lysates may run through a third protein. Some results given as binding are weak or reduced against the parent protein; the word gives no strength. Where a sequence is shown, tags or fusion partners need not be part of it.

Protein sequences, listed by entry. Tags and fused reporters are not part of them. Lines headed by an entry give the natural chain unless they say otherwise; changes in a name come on top.
UniProt P35222: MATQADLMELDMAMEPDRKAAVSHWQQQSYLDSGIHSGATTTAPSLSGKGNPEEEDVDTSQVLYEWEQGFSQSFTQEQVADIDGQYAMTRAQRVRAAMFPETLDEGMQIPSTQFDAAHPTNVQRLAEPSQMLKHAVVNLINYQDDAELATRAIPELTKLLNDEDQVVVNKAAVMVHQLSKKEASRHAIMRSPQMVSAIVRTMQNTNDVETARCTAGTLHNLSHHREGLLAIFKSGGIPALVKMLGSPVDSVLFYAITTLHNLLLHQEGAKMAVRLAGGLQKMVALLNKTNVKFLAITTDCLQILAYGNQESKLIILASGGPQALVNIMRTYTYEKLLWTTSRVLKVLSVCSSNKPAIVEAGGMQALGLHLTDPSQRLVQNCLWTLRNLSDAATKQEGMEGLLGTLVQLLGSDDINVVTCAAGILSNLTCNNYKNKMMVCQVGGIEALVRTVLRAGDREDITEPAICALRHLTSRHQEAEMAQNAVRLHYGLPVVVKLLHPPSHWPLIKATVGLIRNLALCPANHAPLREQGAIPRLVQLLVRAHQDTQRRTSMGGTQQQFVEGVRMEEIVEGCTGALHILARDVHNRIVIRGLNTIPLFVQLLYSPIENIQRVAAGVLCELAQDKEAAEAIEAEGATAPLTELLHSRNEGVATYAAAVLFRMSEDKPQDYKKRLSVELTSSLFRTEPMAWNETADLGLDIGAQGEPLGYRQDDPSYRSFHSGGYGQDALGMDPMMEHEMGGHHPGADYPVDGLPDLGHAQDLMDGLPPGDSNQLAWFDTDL

How the values were obtained:
[1] = biological target: Met, the HGF/SF receptor (Homo sapiens (Human)) (UniProt P08581); assay: amylose pull-down, immunoblot (told again from the preceding Examples)
[2] = biological target: Met, the HGF/SF receptor (Homo sapiens (Human)) (UniProt P08581); assay: amylose pull-down from pervanadate-treated MDA-MB-231 lysate, immunoblot
Gab 1 (human) [3] = biological target: T1, Gab 1 (human) (UniProt Q13480); assay: amylose pull-down from pervanadate-treated T-47D lysate, anti-Gab 1 immunoblot
T1 sequence (chain, from pervanadate-treated cells; phosphorylated sites not stated): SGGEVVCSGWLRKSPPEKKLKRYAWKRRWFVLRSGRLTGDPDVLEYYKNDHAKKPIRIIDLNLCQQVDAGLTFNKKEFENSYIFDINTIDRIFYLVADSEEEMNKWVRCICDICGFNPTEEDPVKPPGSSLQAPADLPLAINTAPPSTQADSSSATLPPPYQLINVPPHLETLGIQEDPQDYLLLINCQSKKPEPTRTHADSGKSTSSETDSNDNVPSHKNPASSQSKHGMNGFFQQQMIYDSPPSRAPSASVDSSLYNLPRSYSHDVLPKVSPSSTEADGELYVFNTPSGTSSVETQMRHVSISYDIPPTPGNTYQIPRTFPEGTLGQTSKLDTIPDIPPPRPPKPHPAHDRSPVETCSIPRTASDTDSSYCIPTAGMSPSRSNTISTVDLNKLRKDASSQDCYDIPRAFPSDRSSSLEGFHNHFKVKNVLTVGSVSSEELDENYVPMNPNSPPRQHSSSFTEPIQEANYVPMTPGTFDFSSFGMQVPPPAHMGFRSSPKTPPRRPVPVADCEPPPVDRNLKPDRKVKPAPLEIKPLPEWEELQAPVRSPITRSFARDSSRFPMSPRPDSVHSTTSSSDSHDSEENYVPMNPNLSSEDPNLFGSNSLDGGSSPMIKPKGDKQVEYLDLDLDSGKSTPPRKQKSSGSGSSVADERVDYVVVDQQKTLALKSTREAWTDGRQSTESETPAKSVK

[4] = biological target: Met, the HGF/SF receptor (Homo sapiens (Human)) (UniProt P08581); assay: amylose pull-down from pervanadate-treated T-47D/Met lysate, anti-Met immunoblot
β-catenin (human) = β-catenin (human) (UniProt P35222); assay: amylose pull-down from pervanadate-treated T-47D lysate, anti-β-catenin immunoblot
Gab 1 (human) [5] = biological target: T1, Gab 1 (human); assay: amylose pull-down from pervanadate-treated T-47D/Met lysate, anti-Gab 1 immunoblot
plakoglobin (human) = biological target: T2, plakoglobin (human) (UniProt P14923); assay: amylose pull-down from pervanadate-treated T-47D lysate, anti-plakoglobin immunoblot
T2 sequence: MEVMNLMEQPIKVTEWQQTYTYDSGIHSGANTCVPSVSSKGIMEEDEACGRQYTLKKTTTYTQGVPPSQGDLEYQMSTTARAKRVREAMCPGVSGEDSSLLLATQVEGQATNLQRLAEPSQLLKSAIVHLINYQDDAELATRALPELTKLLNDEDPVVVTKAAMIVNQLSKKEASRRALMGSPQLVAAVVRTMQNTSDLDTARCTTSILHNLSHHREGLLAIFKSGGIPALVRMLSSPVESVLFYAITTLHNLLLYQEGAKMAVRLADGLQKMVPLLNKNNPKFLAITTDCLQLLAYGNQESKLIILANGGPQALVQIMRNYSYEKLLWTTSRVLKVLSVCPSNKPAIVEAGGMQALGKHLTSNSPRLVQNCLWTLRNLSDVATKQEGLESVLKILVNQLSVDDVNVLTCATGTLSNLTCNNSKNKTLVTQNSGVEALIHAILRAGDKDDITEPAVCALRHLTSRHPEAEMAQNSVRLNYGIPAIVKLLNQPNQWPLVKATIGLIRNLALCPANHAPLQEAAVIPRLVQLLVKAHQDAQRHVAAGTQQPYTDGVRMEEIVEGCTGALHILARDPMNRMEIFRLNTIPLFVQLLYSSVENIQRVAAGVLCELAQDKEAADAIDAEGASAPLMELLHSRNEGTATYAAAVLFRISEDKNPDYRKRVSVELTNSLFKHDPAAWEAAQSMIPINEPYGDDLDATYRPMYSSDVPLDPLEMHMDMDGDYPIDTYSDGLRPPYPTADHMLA

Measured: binding

B1: MBP.DEP-1(DA) (enzyme, not shown: large carriers; small tags and cut ends)
chain: RKKRKDAKNNEVSFSQIKPKKSKLIRVENFEAYFKKQQADSNCGFAEEYEDLKLVGISQPKYAAELAENRGKNRYNNVLPYDISRVKLSVQTHSTDDYINANYMPGYHSKKDFIATQGPLPNTLKDFWRMVWEKNVYAIIMLTKCVEQGRTKCEEYWPSKQAQDYGDITVAMTSEIVLPEWTIRDFTVKNIQTSESHPLRQFHFTSWPAHGVPDTTDLLINFRYLVRDYMKQSPPESPILVHCSAGVGRTGTFIAIDRLIYQIENENTVDVYGIVYDLRMHRPLMVQTEDQYVFLNQCVLDIVRSQKDSKVDLIYQNTTAMTIYENLAPVTTFGKTNGYIA
binds: all assays above

B2: MBP.DEP-1 (enzyme, not shown: large carriers)
chain: B1 chain with A209D
binds: β-catenin (human) | plakoglobin (human)
